Measured values as given in publication doi:10.1101/2022.05.18.492252.
These are yes or no findings as the source states them, for the method shown. Binding seen in cells or lysates may run through a third protein. Some entries that bind do so weakly or less than the wild type. Sequences can lack the tags named with a protein.

By UniProt entry, the sequences of proteins in these tests, tags left out. Residues count along the entry.
UniProt Q15363, residues 21-201: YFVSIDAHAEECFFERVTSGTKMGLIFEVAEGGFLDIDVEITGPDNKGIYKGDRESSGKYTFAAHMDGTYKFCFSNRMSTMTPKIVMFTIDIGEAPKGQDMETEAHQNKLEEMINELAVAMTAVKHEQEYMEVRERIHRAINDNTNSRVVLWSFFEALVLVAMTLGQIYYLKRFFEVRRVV

Molecular target: T1, GFP-VAPA (UniProt Q9P0L0)
T1 sequence: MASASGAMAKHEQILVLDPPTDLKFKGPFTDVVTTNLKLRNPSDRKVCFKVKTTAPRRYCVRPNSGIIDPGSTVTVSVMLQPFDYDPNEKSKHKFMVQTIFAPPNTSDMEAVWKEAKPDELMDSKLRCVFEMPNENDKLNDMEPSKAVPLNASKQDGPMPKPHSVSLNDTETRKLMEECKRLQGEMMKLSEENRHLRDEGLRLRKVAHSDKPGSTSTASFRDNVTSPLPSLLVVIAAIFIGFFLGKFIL
Assay: co-IP

TMED2, endogenous (from UniProt Q15363 21-201)
binding: binds

B1: TMED10, endogenous (protein, UniProt P49755 32-219)
chain: ISFHLPINSRKCLREEIHKDLLVTGAYEISDQSGGAGGLRSHLKITDSAGHILYSKEDATKGKFAFTTEDYDMFEVCFESKGTGRIPDQLVILDMKHGVEAKNYEEIAKVEKLKPLEVELRRLEDLSESIVNDFAYMKKREEEMRDTNESTNTRVLYFSIFSMFCLIGLATWQVFYLRRFFKAKKLIE
binding: binds
